The other results are listed elsewhere or left out. Further columns of the screen follow, without active or inactive calls. Compounds called inactive in the main read-out are mostly missing here. The note in brackets gives the kind of curve behind each potency; many fits are weak.

The assay in a line: IkB Signaling. As to conditions: ABC-DLBCL IkBa-CBG/CBR dual luciferase ratio (green luciferase fused to IkBa over red control in OCI-Ly3 lymphoma cells), 4 h; measured here: control luc red channel unless noted. The method in brief:
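Curves were fitted separately to fusion (green), unfused (red) and ratio luminescence, then classed by r2, magnitude and activity. Cells: OCI-Ly3, 4 h compound plus doxycycline at 37C; 10 uM MG-132 defined full response.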
Broadly, the AC50 is the concentration giving half of the maximal activity seen. Take `Cc1cc(NC(=O)c2cccc(Cl)c2)ccc1-c1cc2ccccc2oc1=O`: the AC50 is 3.98 µM [falling, full curve].

Take `CC(=O)N1CCCc2cc(S(=O)(=O)N3CCC(C(=O)NC4CCC(C)CC4)CC3)ccc21` (configuration not stated): the concentration at half-maximal activity (AC50) was 25.1 µM [falling, partial curve, poor fit]. `COC(=O)c1ccc2c(=O)n(CCCCCC(=O)N3CCN(c4ccccc4)CC3)c(=O)[nH]c2c1`: the AC50 is 2 µM [falling, partial curve]. As to `CCn1c(C(=O)NCc2ccccc2C)cc2oc3ccccc3c21`, the AC50 is 31.6 µM [falling, single point]. Turning to `COC(=O)c1ccccc1NC(=O)c1ncoc1-c1ccco1`, the AC50 is 39.8 µM [rising, single point]. The figure for `Cc1nc(-c2cccc(NC(=O)Nc3ccc([N+](=O)[O-])cc3)c2)no1` is 39.8 µM [falling, single point]; for `Cc1ccccc1OCCSc1nc2ccc(NC(=O)c3ccccc3)cc2s1` it is 15.8 µM [falling, single point]. Consider `COc1cccc(Nc2ncc3ncc(=O)n(C4CC4)c3n2)c1`, for which the AC50 was 2 µM [falling, partial curve] [measured here: IkB-luc green channel].

Regarding `O=C(C1CC1)N1CCc2cc(S(=O)(=O)NCC3COc4ccccc4O3)ccc21` (configuration not stated), the AC50 is 12.6 µM [falling, partial curve]. `Cc1ccc(N(CC(=O)N2CCN(c3ccccc3F)CC2)S(=O)(=O)c2c(C)noc2C)cc1`: the AC50 was 3.98 µM [falling, partial curve].

For the compound `COc1ccc(Cc2noc(-c3ccc(C)cc3)n2)cc1`, the AC50 is 20 µM [rising, partial curve, poor fit] [measured here: IkB-luc green channel].

Consider `COc1cc2c(cc1OC)C(c1ccc(F)cc1)N(c1cccc(C#N)c1)C(=O)C2` (configuration not stated), for which the AC50 was 15.8 µM [falling, single point]. As to `Cc1cccc(Nc2ncnc3nc[nH]c23)c1`, the AC50 was 15.8 µM [falling, partial curve]. In the case of `O=C(Nc1cccc(C(=O)OCc2cc(=O)n3nc(C4CC4)sc3n2)c1)c1cccc(F)c1`, the concentration at half-maximal activity (AC50) is 0.398 µM [falling, full curve, poor fit]. The value for `COc1cc2c(cc1OC)C(COc1ccc3c(C)cc(=O)oc3c1)N(C(=O)c1cccc(C)c1)CC2` (configuration not stated) was 0.398 µM [falling, full curve, poor fit]; that for `CCOc1ccc(-n2c(SCC(=O)NCC3CCCO3)nc3c([nH]c4ccccc43)c2=O)cc1` (configuration not stated) was 1 µM [rising, full curve]. For the compound `COc1cccc(-c2csc(N3CCN(C(=O)Nc4ccccc4OC)CC3)n2)c1`, the AC50 was 20 µM [falling, partial curve]. As to `O=C(NCCc1ccccc1)c1ccc2c(c1)N(Cc1c(F)cccc1Cl)C(=O)CS2`, the half-maximal activity concentration (AC50) is 7.94 µM [falling, full curve]. With `Cn1c(=O)c(=O)n(C)c2cc(S(=O)(=O)N3CCCC3C(=O)Nc3ccccc3F)ccc21` (configuration not stated), the concentration at half-maximal activity (AC50) is 31.6 µM [falling, single point]. Consider `CCCn1nc(C(=O)Nc2cccc(C(=O)OC)c2)c2ccccc2c1=O`, for which the AC50 is 12.6 µM [falling, partial curve]. In the case of `COc1ccc(NC(=O)CSc2nncn3c2cc2oc(C)cc23)cc1OC`, the AC50 was 15.8 µM [falling, partial curve]. The figure for `Cc1ccc(NC(=O)c2cc3cc(C)ccc3n2C)cc1` is 0.0794 µM [rising, full curve, poor fit]; for `NC(=O)CSc1oc(-c2ccco2)nc1S(=O)(=O)c1ccc(Cl)cc1` it is 10 µM [falling, partial curve]. Consider `O=C(NCCc1ccccc1)c1sc2ncccc2c1-n1cccc1`, for which the AC50 is 25.1 µM [falling, single point].

Take `CCCc1cnc2c(c1SCC(=O)N1CCC(C)CC1)c(=O)n(C)c(=O)n2C`: the AC50 was 20 µM [falling, partial curve]. The value for `Cc1nn(Cc2ccccc2Cl)c(C)c1NC(=O)c1cc(C(C)C)on1` was 10 µM [falling, partial curve]. The figure for `CCCN1C(=O)c2[nH]nc(-c3ccccc3O)c2C1c1ccc(OCc2ccccc2)c(OC)c1` (configuration not stated) is 12.6 µM [falling, partial curve]; for `COc1ccc(C2=NOC(C(=O)N3CCCc4ccccc43)C2)cc1` (configuration not stated) it is 25.1 µM [falling, partial curve]; for `CCCC(=O)Nc1nc2ccc(OC)cc2s1` it is 10 µM [falling, partial curve]. For `Cc1ccc(C(=O)Nc2cccc(OCc3cc(=O)n4c5c(sc4n3)CCCC5)c2)cc1`, the AC50 is 1.26 µM [falling, full curve]. The value for `COc1ccc(Cl)cc1N(C)C(=O)c1ccc2c(=O)n3c(nc2c1)CCCCC3` was 12.6 µM [falling, partial curve]; that for `Cc1nc2c(-c3ccccc3)c(C)nn2c(C)c1CCC(=O)N1CCN(c2ccc(F)cc2)CC1` was 15.8 µM [falling, partial curve]. As to `COc1cccc(CNC(=O)CCc2c(C)nc3c(c(C)nn3-c3ccc(C)c(C)c3)c2C)c1`, the AC50 was 12.6 µM [falling, partial curve]. Consider `Cc1cccc(N2CCN(CCCNc3ncnc4onc(-c5ccc(Cl)cc5)c34)CC2C)c1` (configuration not stated), for which the AC50 is 20 µM [falling, single point]. In the case of `COc1ccc(CCNC(=O)CCn2c(=O)c3ccccc3n(Cc3cc(C)ccc3C)c2=O)cc1OC`, the AC50 is 39.8 µM [rising, partial curve]. On to `CCOc1ccccc1CNC(=O)C1CCN(C(=O)N2CC(CC)Oc3ccc(C)cc32)CC1` (configuration not stated), for which the AC50 was 20 µM [falling, single point]. In the case of `O=C(/C=C/c1ccccc1)N1CCN(Cc2cc(=O)n3nc(-c4ccccc4F)sc3n2)CC1`, the half-maximal activity concentration (AC50) is 15.8 µM [falling, partial curve]. As to `COc1ccc(N2CC(NC(=O)/C=C\c3ccccc3)CC2=O)cc1` (configuration not stated), the AC50 was 39.8 µM [falling, single point]. The figure for `O=C(Cn1c(SCCOc2ccccc2)nc2ccccc21)N1CCOCC1` is 31.6 µM [rising, partial curve, poor fit]; for `Cc1cc(OCCn2cc(C(=O)c3cccs3)c3ccccc32)ccc1Cl` it is 2 µM [falling, partial curve]. The figure for `Cc1nnc(SCC(=O)c2cc(C)n(-c3ccc4c(c3)OCO4)c2C)s1` is 31.6 µM [falling, partial curve]; for `O=C(Nc1ccc2nc(SCC(=O)N3CCOCC3)sc2c1)c1cccc(Cl)c1` it is 25.1 µM [falling, partial curve]; for `Cc1c(C(=O)OCCOc2ccccc2)[nH]c2c1C(=O)CC(c1ccccc1)C2` (configuration not stated) it is 0.0316 µM [rising, full curve]. The value for `COc1ccc(CCNC(=O)c2nnn(-c3ccc4c(c3)OCCO4)c2N)cc1OC` was 20 µM [falling, partial curve]; that for `CCc1nnc(SCC(=O)Nc2ccccc2Cl)nc1CC` was 1.58 µM [rising, full curve]; that for `CCc1ccc(NCc2cc3cc4c(cc3n(CC(=O)Nc3cccc(OC)c3)c2=O)OCO4)cc1` was 12.6 µM [falling, partial curve]. Turning to `CC(C)COc1ccc(C(=O)NCC2(N3CCN(C)CC3)CCCCC2)cc1`, the concentration at half-maximal activity (AC50) is 25.1 µM [falling, partial curve, poor fit].

Consider `CCc1ccc2ncc3c(-c4ccccc4)nn(-c4ccccc4)c3c2c1`, for which the AC50 was 10 µM [falling, partial curve]. `COc1ccc(N(C(=O)c2ccc(OC)c(OC)c2)S(=O)(=O)c2ccc(Cl)cc2)cc1`: the concentration at half-maximal activity (AC50) is 7.94 µM [rising, single point]. As for `COc1cccc(NC(=O)CSc2nnc3scc(-c4ccc(Cl)cc4)n23)c1`, the half-maximal activity concentration (AC50) was 20 µM [falling, partial curve]. `C1=C(c2ccc(-c3ccccc3)cc2)Nc2ncnn2C1c1ccco1` (configuration not stated): the half-maximal activity concentration (AC50) was 25.1 µM [falling, single point]. Consider `O=C(NCc1ccco1)c1cc2sccc2n1Cc1ccc(F)cc1`, for which the AC50 is 25.1 µM [falling, partial curve]. As for `CC1=C(C)CS(=O)N(c2ccc(S(N)(=O)=O)cc2)C1` (configuration not stated), the AC50 is 31.6 µM [rising, single point] [measured here: IkB-luc green channel]. For the compound `Cc1ccc(C2CCN(C(=O)Nc3ccccc3)C2)cc1` (configuration not stated), the AC50 was 12.6 µM [falling, partial curve]. The figure for `CCCN(CCC)C(=O)Cn1c(=O)n(-c2cccc(OC)c2)c(=O)c2c3c(sc21)CCCC3` is 12.6 µM [falling, partial curve]; for `O=C(CCCCn1c(=O)c2ccccc2n(Cc2ccccc2Cl)c1=O)NCCc1ccccc1` it is 2.51 µM [rising, partial curve]. For `O=C(OCc1nc2ccccc2s1)c1cccc(S(=O)(=O)N2CCOCC2)c1`, the AC50 was 10 µM [falling, partial curve]. As to `Cc1csc2nc(COC(=O)c3cccc(NC(=O)COc4ccc(Cl)cc4)c3)cc(=O)n12`, the half-maximal activity concentration (AC50) is 3.16 µM [falling, full curve].

Regarding `O=C(OCc1cc(Cl)ccc1OC(F)F)c1cc(S(=O)(=O)O)ccc1O`, the AC50 was 10 µM [falling, partial curve]. Take `Cc1ccc2nc(N3CCN(c4cccc(C(F)(F)F)c4)CC3)c3nnnn3c2c1`: the AC50 was 3.98 µM [falling, partial curve].

In the case of `Cc1cc(C)c2cc(CN(Cc3cccs3)Cc3nnnn3CC3CCCO3)c(=O)[nH]c2c1` (configuration not stated), the AC50 was 39.8 µM [falling, single point]. For the compound `CCN(CC)c1ccc(NC(=O)CCS(=O)(=O)c2cc3c(cc2Cl)NC(=O)CO3)c(C)c1`, the AC50 is 10 µM [falling, partial curve].

Values taken from PubChem BioAssay AID445 (National Center for Advancing Translational Sciences (NCATS), 2006).
